{"source": "patent EP0812825B1", "about": "“PROPENONE DERIVATIVES” (KYOWA HAKKO KOGYO CO., LTD., priority 1995, dated 1997)", "test_system": "P388 mouse leukemia", "assay": "Effect upon P388 ascites tumor (increased life span)", "assay_type": "in vivo, CDF1 mice", "settings": "dose 100 mg/kg", "note": "The name of at least one read-out is uncertain.", "data": [{"smiles": "COc1cc(C(=O)/C(=C/c2c[nH]c3ccccc23)SCC[Si](C)(C)C)cc(OC)c1OC", "note": "[Compound 10, (Z)-3-(Indol-3-yl)-1-(3,4,5-trimethoxyphenyl)-2-(2-trimethylsilylethylthio)-2-propen-1-one]", "values": [{"measurement": "ILS (%) five consec. admin.", "setting": "consecutive 5 days from 24 hours after implantation", "value": "73 (100) %"}, {"measurement": "ILS (%) single admin.", "setting": "once 24 hours after implantation", "value": "16 (100) %"}]}]}
